Measurements as given in paper PMC11166643.
Read-outs that look alike come from different tables or passages of the source. Results are given in words; binding and its absence hold for the method and conditions named. In cells and extracts the contact can be indirect. Some results given as binding are weak or reduced against the parent protein; the word gives no strength. For part of these data: Where a sequence is shown, tags or fusion partners need not be part of it. Each block holds one molecule with its values, some of them ahead of it.

Sequences of proteins named here, by UniProt entry; tags and fusion partners are left off.
UniProt Q16665: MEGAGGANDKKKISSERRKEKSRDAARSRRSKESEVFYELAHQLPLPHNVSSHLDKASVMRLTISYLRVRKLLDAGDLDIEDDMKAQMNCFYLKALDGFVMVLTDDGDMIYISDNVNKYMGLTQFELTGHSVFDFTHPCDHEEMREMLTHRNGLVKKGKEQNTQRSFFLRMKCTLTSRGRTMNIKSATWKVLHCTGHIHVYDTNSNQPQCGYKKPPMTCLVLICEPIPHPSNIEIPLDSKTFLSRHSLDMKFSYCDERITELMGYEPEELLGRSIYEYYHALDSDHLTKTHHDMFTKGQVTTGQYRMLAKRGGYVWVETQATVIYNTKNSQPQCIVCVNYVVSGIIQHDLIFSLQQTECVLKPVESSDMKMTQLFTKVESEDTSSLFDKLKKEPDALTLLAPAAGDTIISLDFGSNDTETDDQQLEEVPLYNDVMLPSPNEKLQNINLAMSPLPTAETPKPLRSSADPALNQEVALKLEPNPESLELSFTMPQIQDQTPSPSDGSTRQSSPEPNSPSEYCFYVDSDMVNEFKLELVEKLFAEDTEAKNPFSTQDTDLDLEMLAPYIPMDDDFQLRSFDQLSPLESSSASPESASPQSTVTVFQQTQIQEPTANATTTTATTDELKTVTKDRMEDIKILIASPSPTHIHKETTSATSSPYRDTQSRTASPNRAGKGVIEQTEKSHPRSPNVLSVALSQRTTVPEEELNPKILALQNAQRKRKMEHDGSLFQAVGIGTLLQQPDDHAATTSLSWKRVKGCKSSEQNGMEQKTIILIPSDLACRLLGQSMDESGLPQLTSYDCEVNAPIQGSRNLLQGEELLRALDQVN
UniProt Q9UNE7: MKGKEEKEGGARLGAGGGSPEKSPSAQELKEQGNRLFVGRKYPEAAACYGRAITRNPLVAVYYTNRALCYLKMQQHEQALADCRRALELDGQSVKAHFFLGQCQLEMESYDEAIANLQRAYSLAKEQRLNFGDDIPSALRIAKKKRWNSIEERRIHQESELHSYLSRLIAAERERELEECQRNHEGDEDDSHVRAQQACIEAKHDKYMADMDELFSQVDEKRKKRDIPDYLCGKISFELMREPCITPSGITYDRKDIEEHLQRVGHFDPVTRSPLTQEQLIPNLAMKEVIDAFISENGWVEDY

Columns and labels:
[1] = molecular target: T1, myc-DAB2IP C-terminal mutant (564-1189) (UniProt Q5VWQ8); test: co-IP; HEK293T co-transfected with HA-STUB1 and myc-DAB2IP mutants; Myc antibody immunoprecipitation, STUB1 detected by HA antibody
T1 sequence: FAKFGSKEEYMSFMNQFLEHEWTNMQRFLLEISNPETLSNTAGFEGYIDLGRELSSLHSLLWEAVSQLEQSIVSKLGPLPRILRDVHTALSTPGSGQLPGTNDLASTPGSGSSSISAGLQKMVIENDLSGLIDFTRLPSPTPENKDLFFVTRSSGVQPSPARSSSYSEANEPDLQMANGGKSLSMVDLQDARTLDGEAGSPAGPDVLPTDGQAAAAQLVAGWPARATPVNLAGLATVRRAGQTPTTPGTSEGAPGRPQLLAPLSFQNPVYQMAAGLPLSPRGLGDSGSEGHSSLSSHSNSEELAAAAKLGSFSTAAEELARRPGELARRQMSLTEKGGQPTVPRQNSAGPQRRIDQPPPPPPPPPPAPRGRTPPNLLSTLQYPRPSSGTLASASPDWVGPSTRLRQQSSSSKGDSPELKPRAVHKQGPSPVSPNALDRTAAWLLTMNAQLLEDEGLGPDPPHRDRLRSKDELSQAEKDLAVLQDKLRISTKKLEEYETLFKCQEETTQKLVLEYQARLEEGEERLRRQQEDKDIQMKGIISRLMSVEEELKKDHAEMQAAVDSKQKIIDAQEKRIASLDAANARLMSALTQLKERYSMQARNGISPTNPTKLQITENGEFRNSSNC

[2] = molecular target: T2, myc-DAB2IP N-terminal mutant (1-563) (UniProt Q5VWQ8); test: as above
T2 sequence: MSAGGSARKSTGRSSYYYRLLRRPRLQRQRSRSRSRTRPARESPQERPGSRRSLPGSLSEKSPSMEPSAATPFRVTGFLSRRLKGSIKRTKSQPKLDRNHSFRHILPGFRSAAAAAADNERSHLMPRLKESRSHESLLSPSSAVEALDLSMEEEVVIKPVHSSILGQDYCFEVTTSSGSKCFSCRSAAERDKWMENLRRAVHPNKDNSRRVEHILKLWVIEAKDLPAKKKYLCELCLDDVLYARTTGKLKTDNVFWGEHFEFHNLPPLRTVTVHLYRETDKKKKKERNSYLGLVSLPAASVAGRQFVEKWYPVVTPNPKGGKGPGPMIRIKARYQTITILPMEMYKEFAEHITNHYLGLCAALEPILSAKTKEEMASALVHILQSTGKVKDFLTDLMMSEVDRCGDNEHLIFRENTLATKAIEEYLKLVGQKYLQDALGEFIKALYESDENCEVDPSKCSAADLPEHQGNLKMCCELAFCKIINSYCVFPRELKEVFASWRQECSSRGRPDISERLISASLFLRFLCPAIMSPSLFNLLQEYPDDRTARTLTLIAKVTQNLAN

[3] = molecular target: HIF-1α (HEK293T, hypoxia) (human (endogenous in HEK293T)) (UniProt Q16665); test: co-IP; HEK293T cells transfected with DAB2IP plasmid (for Fig. 4F pcDNA3.1-DAB2IP at the indicated concentrations) under hypoxic condition; western blot
[4] = molecular target: HIF-1α (HEK293T, hypoxia) (human (endogenous in HEK293T)) (UniProt Q16665); test: proximity ligation; PLA in fixed HEK293T cells with control (NC) or DAB2IP overexpression under hypoxic condition; Duolink kit
[5] = molecular target: T3, DAB2IP (endogenous, MCF7) (human (endogenous in MCF7)) (UniProt Q5VWQ8); test: co-IP; endogenous proteins in MCF7 cells under hypoxic condition, detected by western blot; also with DAB2IP knocked down by siRNA at the indicated concentrations
T3 sequence: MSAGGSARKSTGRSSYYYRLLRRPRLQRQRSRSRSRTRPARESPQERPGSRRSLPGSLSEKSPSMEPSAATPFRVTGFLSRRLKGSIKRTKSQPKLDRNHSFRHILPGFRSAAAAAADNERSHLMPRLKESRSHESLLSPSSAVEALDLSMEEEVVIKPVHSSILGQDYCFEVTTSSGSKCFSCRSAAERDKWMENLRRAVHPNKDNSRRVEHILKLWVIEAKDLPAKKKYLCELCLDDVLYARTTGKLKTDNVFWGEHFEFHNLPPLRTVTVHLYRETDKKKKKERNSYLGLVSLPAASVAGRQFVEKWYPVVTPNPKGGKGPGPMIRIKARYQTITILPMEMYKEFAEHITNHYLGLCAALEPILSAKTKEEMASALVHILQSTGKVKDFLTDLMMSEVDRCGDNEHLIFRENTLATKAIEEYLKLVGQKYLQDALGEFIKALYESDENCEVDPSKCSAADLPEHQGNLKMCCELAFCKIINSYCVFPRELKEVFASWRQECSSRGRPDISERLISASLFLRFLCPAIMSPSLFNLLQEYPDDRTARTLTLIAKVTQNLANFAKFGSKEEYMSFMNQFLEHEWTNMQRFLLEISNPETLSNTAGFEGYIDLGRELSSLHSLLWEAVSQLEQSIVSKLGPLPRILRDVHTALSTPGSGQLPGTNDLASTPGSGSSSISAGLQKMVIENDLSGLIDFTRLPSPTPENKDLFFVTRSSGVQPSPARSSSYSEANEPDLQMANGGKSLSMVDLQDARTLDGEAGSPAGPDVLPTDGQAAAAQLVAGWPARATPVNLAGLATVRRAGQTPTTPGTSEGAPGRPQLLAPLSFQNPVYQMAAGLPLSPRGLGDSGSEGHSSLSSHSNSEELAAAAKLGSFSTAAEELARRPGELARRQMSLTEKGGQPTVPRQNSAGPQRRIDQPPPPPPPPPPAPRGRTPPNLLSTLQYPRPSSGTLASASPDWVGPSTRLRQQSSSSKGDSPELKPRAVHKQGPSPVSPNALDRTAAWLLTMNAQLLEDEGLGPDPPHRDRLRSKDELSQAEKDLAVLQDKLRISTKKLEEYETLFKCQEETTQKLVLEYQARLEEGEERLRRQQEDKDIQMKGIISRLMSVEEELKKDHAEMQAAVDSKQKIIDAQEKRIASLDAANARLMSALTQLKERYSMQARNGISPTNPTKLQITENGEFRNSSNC

[6] = molecular target: HIF-1α (endogenous, MCF7) (human (endogenous in MCF7)) (UniProt Q16665); test: as above
[7] = molecular target: STUB1 (endogenous, MCF7) (human (endogenous in MCF7)) (UniProt Q9UNE7); test: as above
[8] = molecular target: HIF-1α (endogenous, MCF7) (human (endogenous in MCF7)) (UniProt Q16665); test: as above; remark: listed apart in the source
[9] = molecular target: HIF-1α (HEK293T, hypoxia) (human (endogenous in HEK293T)) (UniProt Q16665); test: co-IP; HEK293T cells transfected with DAB2IP plasmid (for Fig. 4F pcDNA3.1-DAB2IP at the indicated concentrations) under hypoxic condition; western blot; remark: listed apart in the source

binding [1]: binds
binding [2]: no binding
Molecule: HA-STUB1 (from UniProt Q9UNE7 1-303) (enzyme)

binding [7]: binds
binding [8]: binds
B1: DAB2IP (endogenous, MCF7) (protein, UniProt Q5VWQ8 1-1189)
chain: MSAGGSARKSTGRSSYYYRLLRRPRLQRQRSRSRSRTRPARESPQERPGSRRSLPGSLSEKSPSMEPSAATPFRVTGFLSRRLKGSIKRTKSQPKLDRNHSFRHILPGFRSAAAAAADNERSHLMPRLKESRSHESLLSPSSAVEALDLSMEEEVVIKPVHSSILGQDYCFEVTTSSGSKCFSCRSAAERDKWMENLRRAVHPNKDNSRRVEHILKLWVIEAKDLPAKKKYLCELCLDDVLYARTTGKLKTDNVFWGEHFEFHNLPPLRTVTVHLYRETDKKKKKERNSYLGLVSLPAASVAGRQFVEKWYPVVTPNPKGGKGPGPMIRIKARYQTITILPMEMYKEFAEHITNHYLGLCAALEPILSAKTKEEMASALVHILQSTGKVKDFLTDLMMSEVDRCGDNEHLIFRENTLATKAIEEYLKLVGQKYLQDALGEFIKALYESDENCEVDPSKCSAADLPEHQGNLKMCCELAFCKIINSYCVFPRELKEVFASWRQECSSRGRPDISERLISASLFLRFLCPAIMSPSLFNLLQEYPDDRTARTLTLIAKVTQNLANFAKFGSKEEYMSFMNQFLEHEWTNMQRFLLEISNPETLSNTAGFEGYIDLGRELSSLHSLLWEAVSQLEQSIVSKLGPLPRILRDVHTALSTPGSGQLPGTNDLASTPGSGSSSISAGLQKMVIENDLSGLIDFTRLPSPTPENKDLFFVTRSSGVQPSPARSSSYSEANEPDLQMANGGKSLSMVDLQDARTLDGEAGSPAGPDVLPTDGQAAAAQLVAGWPARATPVNLAGLATVRRAGQTPTTPGTSEGAPGRPQLLAPLSFQNPVYQMAAGLPLSPRGLGDSGSEGHSSLSSHSNSEELAAAAKLGSFSTAAEELARRPGELARRQMSLTEKGGQPTVPRQNSAGPQRRIDQPPPPPPPPPPAPRGRTPPNLLSTLQYPRPSSGTLASASPDWVGPSTRLRQQSSSSKGDSPELKPRAVHKQGPSPVSPNALDRTAAWLLTMNAQLLEDEGLGPDPPHRDRLRSKDELSQAEKDLAVLQDKLRISTKKLEEYETLFKCQEETTQKLVLEYQARLEEGEERLRRQQEDKDIQMKGIISRLMSVEEELKKDHAEMQAAVDSKQKIIDAQEKRIASLDAANARLMSALTQLKERYSMQARNGISPTNPTKLQITENGEFRNSSNC

binding [9]: binds
B2: Myc-DAB2IP (full length: 1-1189) (protein, UniProt Q5VWQ8 1-1189)
chain: MSAGGSARKSTGRSSYYYRLLRRPRLQRQRSRSRSRTRPARESPQERPGSRRSLPGSLSEKSPSMEPSAATPFRVTGFLSRRLKGSIKRTKSQPKLDRNHSFRHILPGFRSAAAAAADNERSHLMPRLKESRSHESLLSPSSAVEALDLSMEEEVVIKPVHSSILGQDYCFEVTTSSGSKCFSCRSAAERDKWMENLRRAVHPNKDNSRRVEHILKLWVIEAKDLPAKKKYLCELCLDDVLYARTTGKLKTDNVFWGEHFEFHNLPPLRTVTVHLYRETDKKKKKERNSYLGLVSLPAASVAGRQFVEKWYPVVTPNPKGGKGPGPMIRIKARYQTITILPMEMYKEFAEHITNHYLGLCAALEPILSAKTKEEMASALVHILQSTGKVKDFLTDLMMSEVDRCGDNEHLIFRENTLATKAIEEYLKLVGQKYLQDALGEFIKALYESDENCEVDPSKCSAADLPEHQGNLKMCCELAFCKIINSYCVFPRELKEVFASWRQECSSRGRPDISERLISASLFLRFLCPAIMSPSLFNLLQEYPDDRTARTLTLIAKVTQNLANFAKFGSKEEYMSFMNQFLEHEWTNMQRFLLEISNPETLSNTAGFEGYIDLGRELSSLHSLLWEAVSQLEQSIVSKLGPLPRILRDVHTALSTPGSGQLPGTNDLASTPGSGSSSISAGLQKMVIENDLSGLIDFTRLPSPTPENKDLFFVTRSSGVQPSPARSSSYSEANEPDLQMANGGKSLSMVDLQDARTLDGEAGSPAGPDVLPTDGQAAAAQLVAGWPARATPVNLAGLATVRRAGQTPTTPGTSEGAPGRPQLLAPLSFQNPVYQMAAGLPLSPRGLGDSGSEGHSSLSSHSNSEELAAAAKLGSFSTAAEELARRPGELARRQMSLTEKGGQPTVPRQNSAGPQRRIDQPPPPPPPPPPAPRGRTPPNLLSTLQYPRPSSGTLASASPDWVGPSTRLRQQSSSSKGDSPELKPRAVHKQGPSPVSPNALDRTAAWLLTMNAQLLEDEGLGPDPPHRDRLRSKDELSQAEKDLAVLQDKLRISTKKLEEYETLFKCQEETTQKLVLEYQARLEEGEERLRRQQEDKDIQMKGIISRLMSVEEELKKDHAEMQAAVDSKQKIIDAQEKRIASLDAANARLMSALTQLKERYSMQARNGISPTNPTKLQITENGEFRNSSNC

The next lines start with the molecule.

Molecule: STUB1 (endogenous, HEK293T) (from UniProt Q9UNE7 1-303) (enzyme)
binding [3]: binds
binding [4]: binds

Molecule: STUB1 (endogenous, MCF7) (from UniProt Q9UNE7 1-303) (enzyme)
binding [5]: binds
binding [6]: binds
